# Some of the results follow. Small differences around the control level are noise.
# Sequences of proteins named here, by UniProt entry; tags and fusion partners are left off. A change or cut given only in a name is not applied to a line headed by its entry.
# UniProt O88492: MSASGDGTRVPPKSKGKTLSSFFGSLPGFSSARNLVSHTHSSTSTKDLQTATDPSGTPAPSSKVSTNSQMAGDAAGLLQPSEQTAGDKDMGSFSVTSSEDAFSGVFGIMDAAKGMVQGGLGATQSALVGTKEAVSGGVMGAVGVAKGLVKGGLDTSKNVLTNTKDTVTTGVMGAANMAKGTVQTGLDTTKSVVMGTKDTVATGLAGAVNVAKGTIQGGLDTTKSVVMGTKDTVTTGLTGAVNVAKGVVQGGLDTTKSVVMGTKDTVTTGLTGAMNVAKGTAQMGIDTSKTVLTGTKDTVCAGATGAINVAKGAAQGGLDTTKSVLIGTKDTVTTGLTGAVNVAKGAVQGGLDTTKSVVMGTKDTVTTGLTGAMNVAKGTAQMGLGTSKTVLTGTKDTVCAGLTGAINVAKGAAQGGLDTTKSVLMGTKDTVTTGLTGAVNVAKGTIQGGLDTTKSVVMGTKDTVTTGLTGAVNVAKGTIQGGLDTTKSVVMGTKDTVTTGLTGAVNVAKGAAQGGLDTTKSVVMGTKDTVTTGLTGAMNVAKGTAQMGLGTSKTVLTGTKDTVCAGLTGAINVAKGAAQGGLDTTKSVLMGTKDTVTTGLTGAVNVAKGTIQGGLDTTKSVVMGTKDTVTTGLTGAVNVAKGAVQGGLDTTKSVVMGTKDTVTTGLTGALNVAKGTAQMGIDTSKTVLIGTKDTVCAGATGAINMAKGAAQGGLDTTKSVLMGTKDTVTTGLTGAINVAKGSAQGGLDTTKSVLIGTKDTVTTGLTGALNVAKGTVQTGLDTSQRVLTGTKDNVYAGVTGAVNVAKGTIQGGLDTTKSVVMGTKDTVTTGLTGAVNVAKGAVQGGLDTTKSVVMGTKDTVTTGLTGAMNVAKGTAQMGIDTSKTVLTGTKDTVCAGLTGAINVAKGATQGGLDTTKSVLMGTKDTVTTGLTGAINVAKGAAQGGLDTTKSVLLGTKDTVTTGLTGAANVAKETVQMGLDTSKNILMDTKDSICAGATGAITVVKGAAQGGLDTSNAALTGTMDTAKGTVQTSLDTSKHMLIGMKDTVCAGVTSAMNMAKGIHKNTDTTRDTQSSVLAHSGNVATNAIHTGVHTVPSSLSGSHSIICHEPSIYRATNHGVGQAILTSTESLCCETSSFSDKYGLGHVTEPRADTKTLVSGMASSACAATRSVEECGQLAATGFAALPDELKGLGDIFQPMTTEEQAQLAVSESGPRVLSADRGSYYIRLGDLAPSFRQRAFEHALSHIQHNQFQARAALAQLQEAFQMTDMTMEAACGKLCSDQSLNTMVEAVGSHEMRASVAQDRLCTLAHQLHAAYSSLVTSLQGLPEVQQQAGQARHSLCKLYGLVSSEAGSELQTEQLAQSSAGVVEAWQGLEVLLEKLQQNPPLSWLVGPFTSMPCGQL
# UniProt O35516: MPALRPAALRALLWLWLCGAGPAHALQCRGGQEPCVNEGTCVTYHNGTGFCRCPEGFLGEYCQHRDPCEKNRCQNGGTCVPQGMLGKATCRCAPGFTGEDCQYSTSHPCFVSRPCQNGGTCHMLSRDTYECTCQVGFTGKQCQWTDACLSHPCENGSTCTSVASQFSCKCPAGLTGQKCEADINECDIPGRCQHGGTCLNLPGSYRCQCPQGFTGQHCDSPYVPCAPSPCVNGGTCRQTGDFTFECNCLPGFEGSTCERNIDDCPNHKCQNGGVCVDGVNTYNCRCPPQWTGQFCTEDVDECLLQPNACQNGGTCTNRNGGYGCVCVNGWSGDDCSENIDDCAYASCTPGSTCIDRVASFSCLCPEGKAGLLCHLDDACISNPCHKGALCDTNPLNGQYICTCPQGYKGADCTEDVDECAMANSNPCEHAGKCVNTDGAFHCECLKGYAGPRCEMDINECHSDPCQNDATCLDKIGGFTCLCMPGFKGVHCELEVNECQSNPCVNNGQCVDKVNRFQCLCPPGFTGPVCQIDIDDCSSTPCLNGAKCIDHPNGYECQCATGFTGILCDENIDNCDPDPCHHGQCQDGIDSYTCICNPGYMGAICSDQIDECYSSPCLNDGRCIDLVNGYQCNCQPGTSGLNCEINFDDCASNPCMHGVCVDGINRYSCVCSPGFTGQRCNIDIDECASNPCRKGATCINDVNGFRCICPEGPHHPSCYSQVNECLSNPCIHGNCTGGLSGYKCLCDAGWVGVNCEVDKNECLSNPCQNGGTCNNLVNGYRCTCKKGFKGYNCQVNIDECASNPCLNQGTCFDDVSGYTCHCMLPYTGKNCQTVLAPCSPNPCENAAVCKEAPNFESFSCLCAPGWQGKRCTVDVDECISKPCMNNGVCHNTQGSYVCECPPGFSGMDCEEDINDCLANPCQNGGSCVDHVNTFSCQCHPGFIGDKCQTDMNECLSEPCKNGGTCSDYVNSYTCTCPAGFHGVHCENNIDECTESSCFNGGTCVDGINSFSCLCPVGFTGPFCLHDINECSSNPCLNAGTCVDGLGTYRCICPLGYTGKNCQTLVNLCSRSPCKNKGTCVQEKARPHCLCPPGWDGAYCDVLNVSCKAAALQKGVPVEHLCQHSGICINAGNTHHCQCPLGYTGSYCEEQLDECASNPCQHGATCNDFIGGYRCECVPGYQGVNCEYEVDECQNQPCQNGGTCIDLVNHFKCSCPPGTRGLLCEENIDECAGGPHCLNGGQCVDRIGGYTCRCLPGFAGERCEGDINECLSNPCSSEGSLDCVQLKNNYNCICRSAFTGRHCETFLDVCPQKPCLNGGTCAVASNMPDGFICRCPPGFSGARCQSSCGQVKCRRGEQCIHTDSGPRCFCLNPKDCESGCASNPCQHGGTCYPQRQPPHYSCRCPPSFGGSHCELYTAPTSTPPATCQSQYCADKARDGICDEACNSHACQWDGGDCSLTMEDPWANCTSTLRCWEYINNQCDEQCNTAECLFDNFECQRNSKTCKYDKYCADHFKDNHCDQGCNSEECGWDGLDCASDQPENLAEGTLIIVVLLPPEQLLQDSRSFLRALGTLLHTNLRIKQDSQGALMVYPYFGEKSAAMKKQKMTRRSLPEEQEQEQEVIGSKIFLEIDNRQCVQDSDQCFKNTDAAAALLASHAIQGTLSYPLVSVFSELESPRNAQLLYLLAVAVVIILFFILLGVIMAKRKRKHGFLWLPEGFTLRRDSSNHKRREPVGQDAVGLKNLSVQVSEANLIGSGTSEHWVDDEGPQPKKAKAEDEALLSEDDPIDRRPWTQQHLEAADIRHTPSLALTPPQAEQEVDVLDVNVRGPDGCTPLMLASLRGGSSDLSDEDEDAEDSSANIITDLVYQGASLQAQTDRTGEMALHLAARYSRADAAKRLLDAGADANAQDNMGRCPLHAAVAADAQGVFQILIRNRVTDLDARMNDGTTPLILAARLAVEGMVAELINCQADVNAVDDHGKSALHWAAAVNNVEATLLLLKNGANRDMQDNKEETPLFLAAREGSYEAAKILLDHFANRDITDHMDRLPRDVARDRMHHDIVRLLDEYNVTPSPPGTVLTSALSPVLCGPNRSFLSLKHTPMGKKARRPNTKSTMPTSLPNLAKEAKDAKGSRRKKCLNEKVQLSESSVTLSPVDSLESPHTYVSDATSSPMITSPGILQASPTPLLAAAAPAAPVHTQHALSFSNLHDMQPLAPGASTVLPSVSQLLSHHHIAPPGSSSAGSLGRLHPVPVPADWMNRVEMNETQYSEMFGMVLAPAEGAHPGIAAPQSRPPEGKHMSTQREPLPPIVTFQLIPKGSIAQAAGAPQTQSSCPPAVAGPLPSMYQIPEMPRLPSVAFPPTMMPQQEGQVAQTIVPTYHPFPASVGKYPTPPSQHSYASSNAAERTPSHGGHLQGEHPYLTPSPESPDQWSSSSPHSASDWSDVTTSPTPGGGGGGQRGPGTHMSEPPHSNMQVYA
# UniProt O70161: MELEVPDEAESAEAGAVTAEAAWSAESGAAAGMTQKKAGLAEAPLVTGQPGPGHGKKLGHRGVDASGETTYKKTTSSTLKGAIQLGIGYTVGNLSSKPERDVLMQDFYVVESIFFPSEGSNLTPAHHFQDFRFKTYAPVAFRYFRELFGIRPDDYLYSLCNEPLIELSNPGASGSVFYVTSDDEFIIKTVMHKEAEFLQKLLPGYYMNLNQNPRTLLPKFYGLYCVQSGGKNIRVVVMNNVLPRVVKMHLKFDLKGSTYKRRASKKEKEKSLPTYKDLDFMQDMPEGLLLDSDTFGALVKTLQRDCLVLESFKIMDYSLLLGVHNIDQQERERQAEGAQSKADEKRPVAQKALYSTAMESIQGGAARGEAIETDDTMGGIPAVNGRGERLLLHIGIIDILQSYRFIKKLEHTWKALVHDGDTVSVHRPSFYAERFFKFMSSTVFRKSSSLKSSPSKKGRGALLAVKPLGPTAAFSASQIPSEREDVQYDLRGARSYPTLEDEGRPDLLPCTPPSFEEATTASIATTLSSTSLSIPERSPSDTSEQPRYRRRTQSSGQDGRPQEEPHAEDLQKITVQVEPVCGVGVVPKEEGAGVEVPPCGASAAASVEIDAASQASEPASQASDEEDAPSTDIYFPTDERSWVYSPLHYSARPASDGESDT
# UniProt O35984: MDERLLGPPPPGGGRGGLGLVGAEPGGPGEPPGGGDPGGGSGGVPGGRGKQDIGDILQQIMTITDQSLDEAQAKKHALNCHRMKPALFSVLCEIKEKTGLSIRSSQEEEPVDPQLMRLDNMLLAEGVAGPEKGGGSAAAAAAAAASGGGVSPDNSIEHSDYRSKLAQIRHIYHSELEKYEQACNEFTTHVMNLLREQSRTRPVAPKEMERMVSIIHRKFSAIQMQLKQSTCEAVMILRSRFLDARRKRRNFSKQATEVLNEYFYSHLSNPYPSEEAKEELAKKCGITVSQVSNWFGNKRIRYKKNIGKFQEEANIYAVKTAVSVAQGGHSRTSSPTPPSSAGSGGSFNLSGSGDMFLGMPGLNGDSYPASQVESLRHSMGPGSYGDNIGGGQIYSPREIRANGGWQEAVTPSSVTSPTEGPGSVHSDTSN
# UniProt O35678, whole entry: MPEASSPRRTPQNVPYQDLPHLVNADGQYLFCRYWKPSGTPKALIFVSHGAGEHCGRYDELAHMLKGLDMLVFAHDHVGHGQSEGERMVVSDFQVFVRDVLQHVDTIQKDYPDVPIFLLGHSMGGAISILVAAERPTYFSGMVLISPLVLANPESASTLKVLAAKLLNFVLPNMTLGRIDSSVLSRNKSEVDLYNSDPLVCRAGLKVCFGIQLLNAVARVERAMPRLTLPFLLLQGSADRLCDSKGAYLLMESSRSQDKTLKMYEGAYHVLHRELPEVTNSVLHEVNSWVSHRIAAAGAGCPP
# UniProt O35887: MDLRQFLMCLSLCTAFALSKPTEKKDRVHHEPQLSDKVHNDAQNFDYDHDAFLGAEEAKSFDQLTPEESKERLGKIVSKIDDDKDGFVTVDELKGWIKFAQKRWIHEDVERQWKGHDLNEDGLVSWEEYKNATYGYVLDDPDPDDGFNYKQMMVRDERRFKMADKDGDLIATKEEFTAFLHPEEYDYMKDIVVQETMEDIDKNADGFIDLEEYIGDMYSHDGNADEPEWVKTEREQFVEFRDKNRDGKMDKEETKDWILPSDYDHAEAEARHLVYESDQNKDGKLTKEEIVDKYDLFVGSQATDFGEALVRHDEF
# UniProt O35623: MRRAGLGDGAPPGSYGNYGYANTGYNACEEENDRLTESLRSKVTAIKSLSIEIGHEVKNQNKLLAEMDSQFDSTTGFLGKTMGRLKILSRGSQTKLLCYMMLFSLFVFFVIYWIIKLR
# UniProt O70572: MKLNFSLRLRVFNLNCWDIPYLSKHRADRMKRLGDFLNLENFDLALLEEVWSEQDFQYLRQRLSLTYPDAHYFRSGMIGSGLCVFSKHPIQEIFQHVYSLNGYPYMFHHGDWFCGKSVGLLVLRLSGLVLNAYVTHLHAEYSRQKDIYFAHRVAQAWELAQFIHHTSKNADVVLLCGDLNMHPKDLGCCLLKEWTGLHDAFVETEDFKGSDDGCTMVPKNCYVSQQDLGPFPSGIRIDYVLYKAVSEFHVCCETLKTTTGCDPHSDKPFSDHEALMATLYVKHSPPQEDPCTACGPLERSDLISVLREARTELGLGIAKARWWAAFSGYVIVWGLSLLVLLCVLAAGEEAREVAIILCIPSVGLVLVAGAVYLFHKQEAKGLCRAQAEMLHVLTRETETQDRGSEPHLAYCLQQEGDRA
# UniProt O54965: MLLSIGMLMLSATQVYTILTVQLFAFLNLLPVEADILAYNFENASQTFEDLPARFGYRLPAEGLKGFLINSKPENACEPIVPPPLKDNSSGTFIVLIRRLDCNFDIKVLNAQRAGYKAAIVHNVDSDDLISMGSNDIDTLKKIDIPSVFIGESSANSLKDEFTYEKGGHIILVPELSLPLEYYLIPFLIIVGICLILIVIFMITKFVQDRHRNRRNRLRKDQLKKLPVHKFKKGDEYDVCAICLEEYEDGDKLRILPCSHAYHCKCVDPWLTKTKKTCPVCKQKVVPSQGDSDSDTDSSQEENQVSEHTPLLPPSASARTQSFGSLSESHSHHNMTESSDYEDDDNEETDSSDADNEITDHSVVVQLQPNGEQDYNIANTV
# Compound: CN[C@@H]1C[C@H]2O[C@@](C)([C@@H]1OC)n1c3ccccc3c3c4c(c5c6ccccc6n2c5c31)C(=O)NC4 [staurosporine]
# Experiment: log2 fold change of tryptic peptide abundance, ligand vs vehicle (limited proteolysis) (log2 ratio); higher = more trypsin-susceptible (destabilized)
# Conditions: ligand concentration: 20 uM; sample: mouse liver crude lysate; replicate design: treated separately
row,Target,log2 fold change
1,"UniProt O88492 (peptide sequence: GTIQGGLDTTK, peptide start residue: 213)",-0.337
2,"UniProt O35516 (peptide sequence: EPVGQDAVGLK, peptide start residue: 1730)",-0.292
3,"UniProt O88196 (peptide sequence: KWQQEKK, peptide start residue: 1542)",0.077
4,"UniProt O70161 (peptide sequence: FMSSTVFR, peptide start residue: 438)",0.375
5,"UniProt O35984 (peptide sequence: TAVSVAQGGHSR, peptide start residue: 320)",-0.276
6,"UniProt O35678 (peptide sequence: YWKPSGTPK, peptide start residue: 34)",0.136
7,"UniProt O35887 (peptide sequence: GHDLNEDGLVSWEEYK, peptide start residue: 115)",-0.102
8,"UniProt O88569 (peptide sequence: GFGFVTFDDHDPVDK, peptide start residue: 154)",0.171
9,"UniProt O35623 (peptide sequence: SLSIEIGHEVKNQNK, peptide start residue: 48)",-0.17
10,"UniProt O70572 (peptide sequence: GSDDGCTMVPK, peptide start residue: 209)",0.46
11,"UniProt O54965 (peptide sequence: KGDEYDVCAICLEEYEDGDKLR, peptide start residue: 233)",-0.279
